# Several values for one entry are separate records, joined by “and”; a condition that tells them apart may be missing. Equal entries are not always repeated. Structures can show the parent of a compound that is named as a salt. This is one part of the list. Single values are uncertain here, since repeats match poorly.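 HEK293T cells were given each compound shortly before transfection with a reporter in which red mCherry is followed by the SARS-CoV-2 frameshift element and then GFP in the −1 frame, so GFP appears only after frameshifting.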
# Tested on: HEK293T
# Experiment: percent viability (nuclei count) relative to control; higher = more viable cells
# Conditions: 10 µM; 24 h
row,SMILES,percent viability
1,NS(=O)(=O)c1cc2c(cc1Cl)N=C(CSCc1ccccc1)NS2(=O)=O,219%
2,Nc1nnc(-c2cccc(Cl)c2Cl)c(N)n1 [lamotrigine],297% and 187%
3,CCN(CC)CC(=O)Nc1c(C)cccc1C [Lidocaine·HCl·H2O],316%
4,O=C(O)CCCCC1CCSS1 (stereo not given),179%
5,CC1(C)[C@@H]2CC[C@@]1(C)C(=O)C2,368%
6,CCOc1ccc(NC(=O)CC(C)O)cc1 (stereo not given) [bucetin],386%
7,NC(=O)N[C@@H](CCC(=O)O)C(=O)O [Carbaglu],138%
8,Nc1nc(NC2CC2)c2ncn([C@H]3C=C[C@@H](CO)C3)c2n1 [abacavir],317% and 129%
9,CCCCC[C@H](O)/C=C/[C@@H]1c2cc(CCCCC(=O)O)n(-c3ccccc3)c2C[C@H]1O [piriprost],221%
10,Cn1cnc([N+](=O)[O-])c1Sc1nc(N)nc2[nH]cnc12 [tiamiprine],34.9%
11,CCCSc1nc(N[C@@H]2C[C@H]2c2ccc(F)c(F)c2)c2nnn([C@@H]3C[C@H](OCCO)[C@@H](O)[C@H]3O)c2n1 [Brilinta],189%
12,CCCCCC(C)N (stereo not given) [tuaminoheptane],182%
13,CCc1cccc2cc(C(O)CNC(C)(C)C)oc12 (stereo not given) [bufuralol],76.6%
14,O=C(OCCOCCN1CCCCC1)N1c2ccccc2Sc2cccnc21 [pipazetate],62.6%
15,CO[C@H]1C[C@@H]2CC[C@@H](C)[C@@](O)(O2)C(=O)C(=O)N2CCCC[C@H]2C(=O)O[C@H]([C@H](C)C[C@@H]2CC[C@@H](OCCO)[C@H](OC)C2)CC(=O)[C@H](C)/C=C(\C)[C@@H](O)[C@@H](OC)C(=O)[C@H](C)C[C@H](C)/C=C/C=C/C=C/1C [Everolimus],153%
16,CN1C(C(=O)Nc2ccccn2)=C(O)c2sccc2S1(=O)=O [tenoxicam],280%
17,C[C@H]1[C@H](NC(=O)/C(=N\OC(C)(C)C(=O)O)c2csc(N)n2)C(=O)N1S(=O)(=O)O [Aztreonam],188%
18,O=S1(=O)c2cccc3cccc(c23)N1CCCN1CCN(c2ccc(F)cc2)CC1 [fananserin],137%
19,CC[C@@]1(O)C(=O)OCc2c1cc1n(c2=O)Cc2cc3c(CN(C)C)c(O)ccc3nc2-1 [Topotecan·HCl],146%
20,CN1CC2c3ccccc3Oc3ccc(Cl)cc3C2C1 (stereo not given) [Asenapine],118%

# A second format for some results above.
row | SMILES | percent viability
19 | CC[C@@]1(O)C(=O)OCc2c1cc1n(c2=O)Cc2cc3c(CN(C)C)c(O)ccc3nc2-1 [Topotecan·HCl] | 146%
20 | CN1CC2c3ccccc3Oc3ccc(Cl)cc3C2C1 (stereo not given) [Asenapine] | 118%

# Additional records follow:

row,SMILES,percent viability
1,CCN(CC)S(=O)(=O)c1ccc(C(=O)O)cc1 [etebenecid],253%
2,CN(C)CC[C@@H](c1ccc(Cl)cc1)c1ccccn1 [dexchlorpheniramine],144%
3,CCCC1O[C@@H]2C[C@H]3[C@@H]4CCC5=CC(=O)C=C[C@]5(C)[C@H]4[C@@H](O)C[C@]3(C)[C@]2(C(=O)CO)O1 (stereo not given in full) [Uceris],227%
4,CO[C@@]1(NC(=O)Cc2cccs2)C(=O)N2C(C(=O)O)=C(COC(N)=O)CS[C@@H]21 [cefoxitin],194%
5,CCO[C@@H](Cc1ccc(OCCc2ccc(OS(C)(=O)=O)cc2)cc1)C(=O)O [tesaglitazar],183%
6,CNC(=S)C1(c2ccccn2)CCCS1 (stereo not given) [picartamide],123%
7,CC1(C)[C@H](C(=O)O)N2C(=O)C[C@H]2S1(=O)=O [Sulbactam],211%
8,C[C@@H]1CC(=O)NN=C1c1ccc(NN=C(C#N)C#N)cc1 [levosimendan],133%
9,CC(C)Oc1ccc2c(=O)c(-c3ccccc3)coc2c1,121%
10,COc1ccccc1N1CCN(CC(O)COc2cccc3ccccc23)CC1 (stereo not given) [naftopidil],303% and 293%
11,CCn1cc(C(=O)O)c(=O)c2cnc(N3CCNCC3)nc21 [pipemidic acid],76%
12,CC(Cc1cccc(C(F)(F)F)c1)NCCOC(=O)c1ccccc1 (stereo not given) [benfluorex],222%
13,O=C(CCCl)NCc1ccccc1 [beclamide],214%
14,CC(C)NCC(O)COc1cccc2c1N(C(=O)c1cccnc1)CCC2 (stereo not given) [nicainoprol],208%
15,Cc1cc(O)c(S(=O)(=O)O)cc1Cc1cc(S(=O)(=O)O)c(O)cc1C [dicresulene],127%
16,CC[C@@H](CO)NCCN[C@@H](CC)CO [ethambutol],136%
17,NCCCCCC(=O)O,358%
18,O=C1O[C@H]([C@@H](O)CO)C(O)=C1O [Vitamin C],25.9%
19,CN1C(C(=O)Nc2ccccn2)=C(O)c2sccc2S1(=O)=O [Tenoxicam],124% and 211%
20,CN(C(=O)C(Cl)Cl)c1ccc(OC(=O)c2ccco2)cc1,310%

# — the supplement of paper PMC8256030
